From the supplement of paper PMC10849652
Some of the results follow.

Amino acid sequences for entries named in this document (tags omitted). A change or cut given only in a name is not applied to a line headed by its entry.
UniProt P56182: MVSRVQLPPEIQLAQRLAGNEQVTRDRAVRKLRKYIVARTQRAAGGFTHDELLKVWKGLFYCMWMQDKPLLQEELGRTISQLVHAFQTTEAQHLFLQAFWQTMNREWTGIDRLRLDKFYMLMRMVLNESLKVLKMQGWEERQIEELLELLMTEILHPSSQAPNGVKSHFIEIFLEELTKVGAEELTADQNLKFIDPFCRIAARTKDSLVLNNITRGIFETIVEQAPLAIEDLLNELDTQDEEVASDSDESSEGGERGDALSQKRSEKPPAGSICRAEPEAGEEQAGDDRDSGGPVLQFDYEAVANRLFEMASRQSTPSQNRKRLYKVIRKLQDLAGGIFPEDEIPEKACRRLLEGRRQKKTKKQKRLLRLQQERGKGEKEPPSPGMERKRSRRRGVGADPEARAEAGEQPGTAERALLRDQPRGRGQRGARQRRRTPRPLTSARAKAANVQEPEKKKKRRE
UniProt Q96S38: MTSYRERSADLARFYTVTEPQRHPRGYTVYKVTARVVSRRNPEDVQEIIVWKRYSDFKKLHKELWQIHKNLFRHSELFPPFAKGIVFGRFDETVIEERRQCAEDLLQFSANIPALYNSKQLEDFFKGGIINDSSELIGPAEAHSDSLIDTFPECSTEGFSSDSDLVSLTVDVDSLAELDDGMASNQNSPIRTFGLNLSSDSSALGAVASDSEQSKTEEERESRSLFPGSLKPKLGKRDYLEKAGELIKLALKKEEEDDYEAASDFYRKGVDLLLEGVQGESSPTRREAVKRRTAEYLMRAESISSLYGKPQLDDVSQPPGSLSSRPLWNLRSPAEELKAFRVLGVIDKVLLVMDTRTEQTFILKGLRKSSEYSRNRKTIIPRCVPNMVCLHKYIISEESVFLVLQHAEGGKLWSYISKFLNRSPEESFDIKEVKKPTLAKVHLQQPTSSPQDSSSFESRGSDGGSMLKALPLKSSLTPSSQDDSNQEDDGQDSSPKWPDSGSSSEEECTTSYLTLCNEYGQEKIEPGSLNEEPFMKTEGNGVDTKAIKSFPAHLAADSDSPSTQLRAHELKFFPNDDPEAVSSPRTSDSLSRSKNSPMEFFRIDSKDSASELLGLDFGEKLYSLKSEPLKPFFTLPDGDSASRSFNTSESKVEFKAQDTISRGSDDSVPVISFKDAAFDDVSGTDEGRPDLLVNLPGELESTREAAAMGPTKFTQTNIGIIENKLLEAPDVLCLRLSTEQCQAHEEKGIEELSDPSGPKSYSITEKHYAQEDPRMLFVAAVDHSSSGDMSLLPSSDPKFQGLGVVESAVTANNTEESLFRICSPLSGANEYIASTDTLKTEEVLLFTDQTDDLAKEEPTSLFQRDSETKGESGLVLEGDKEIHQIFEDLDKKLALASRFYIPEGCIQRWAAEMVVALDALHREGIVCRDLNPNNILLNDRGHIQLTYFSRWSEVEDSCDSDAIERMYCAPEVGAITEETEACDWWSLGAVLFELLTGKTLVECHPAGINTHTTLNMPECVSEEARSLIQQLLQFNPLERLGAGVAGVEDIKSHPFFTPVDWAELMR
UniProt Q15404: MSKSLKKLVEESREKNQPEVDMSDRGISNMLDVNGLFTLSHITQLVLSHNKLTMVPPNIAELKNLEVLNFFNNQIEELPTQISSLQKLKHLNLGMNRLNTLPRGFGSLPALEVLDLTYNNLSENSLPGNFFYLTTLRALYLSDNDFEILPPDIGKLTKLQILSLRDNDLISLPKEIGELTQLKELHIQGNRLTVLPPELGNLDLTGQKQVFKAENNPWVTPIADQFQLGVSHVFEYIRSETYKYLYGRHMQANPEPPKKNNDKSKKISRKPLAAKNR
UniProt Q8N122, whole entry, looked up: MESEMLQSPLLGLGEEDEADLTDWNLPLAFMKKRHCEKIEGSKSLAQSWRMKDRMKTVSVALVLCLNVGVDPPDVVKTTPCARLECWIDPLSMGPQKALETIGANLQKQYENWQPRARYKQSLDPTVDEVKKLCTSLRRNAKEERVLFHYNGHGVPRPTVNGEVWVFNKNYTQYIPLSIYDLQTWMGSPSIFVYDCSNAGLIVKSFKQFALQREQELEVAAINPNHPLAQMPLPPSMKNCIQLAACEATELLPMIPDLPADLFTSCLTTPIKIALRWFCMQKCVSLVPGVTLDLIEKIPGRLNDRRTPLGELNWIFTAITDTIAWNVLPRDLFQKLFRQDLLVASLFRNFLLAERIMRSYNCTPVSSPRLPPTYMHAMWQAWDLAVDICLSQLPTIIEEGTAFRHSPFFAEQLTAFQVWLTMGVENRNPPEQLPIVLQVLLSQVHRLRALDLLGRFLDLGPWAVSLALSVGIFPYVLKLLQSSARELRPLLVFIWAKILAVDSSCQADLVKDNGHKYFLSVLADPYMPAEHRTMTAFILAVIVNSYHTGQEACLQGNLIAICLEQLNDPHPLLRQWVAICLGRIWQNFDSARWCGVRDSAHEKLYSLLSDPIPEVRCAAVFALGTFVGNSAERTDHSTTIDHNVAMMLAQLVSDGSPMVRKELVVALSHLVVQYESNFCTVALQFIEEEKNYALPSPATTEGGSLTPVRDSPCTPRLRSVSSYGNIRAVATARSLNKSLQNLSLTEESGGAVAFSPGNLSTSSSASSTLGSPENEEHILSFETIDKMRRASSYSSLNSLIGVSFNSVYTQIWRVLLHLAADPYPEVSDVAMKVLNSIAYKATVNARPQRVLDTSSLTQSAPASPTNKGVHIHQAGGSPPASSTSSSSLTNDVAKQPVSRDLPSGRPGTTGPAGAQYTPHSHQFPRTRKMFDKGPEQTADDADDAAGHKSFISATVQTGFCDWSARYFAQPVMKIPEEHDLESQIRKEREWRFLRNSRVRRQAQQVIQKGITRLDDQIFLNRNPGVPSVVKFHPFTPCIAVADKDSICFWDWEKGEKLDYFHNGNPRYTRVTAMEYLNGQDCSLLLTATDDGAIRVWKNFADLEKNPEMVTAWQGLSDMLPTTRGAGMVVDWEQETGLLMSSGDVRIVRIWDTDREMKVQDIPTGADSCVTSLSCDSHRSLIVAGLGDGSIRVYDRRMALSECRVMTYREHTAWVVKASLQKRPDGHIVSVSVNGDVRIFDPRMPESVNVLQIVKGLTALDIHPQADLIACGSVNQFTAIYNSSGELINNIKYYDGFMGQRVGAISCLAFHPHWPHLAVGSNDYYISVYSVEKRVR
UniProt O43159: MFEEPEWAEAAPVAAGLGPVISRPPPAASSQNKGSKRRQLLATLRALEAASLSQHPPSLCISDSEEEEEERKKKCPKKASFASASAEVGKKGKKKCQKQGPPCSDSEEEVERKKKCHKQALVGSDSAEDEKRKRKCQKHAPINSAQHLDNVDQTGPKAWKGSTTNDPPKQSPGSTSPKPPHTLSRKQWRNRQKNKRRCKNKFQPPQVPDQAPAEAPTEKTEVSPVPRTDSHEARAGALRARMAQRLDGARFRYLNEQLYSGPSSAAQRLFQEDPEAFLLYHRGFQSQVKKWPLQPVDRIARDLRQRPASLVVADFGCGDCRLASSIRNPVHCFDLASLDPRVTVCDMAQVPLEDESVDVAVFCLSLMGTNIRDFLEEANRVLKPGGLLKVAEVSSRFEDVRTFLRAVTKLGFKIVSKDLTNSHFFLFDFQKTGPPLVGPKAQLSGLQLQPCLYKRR
UniProt Q9H446: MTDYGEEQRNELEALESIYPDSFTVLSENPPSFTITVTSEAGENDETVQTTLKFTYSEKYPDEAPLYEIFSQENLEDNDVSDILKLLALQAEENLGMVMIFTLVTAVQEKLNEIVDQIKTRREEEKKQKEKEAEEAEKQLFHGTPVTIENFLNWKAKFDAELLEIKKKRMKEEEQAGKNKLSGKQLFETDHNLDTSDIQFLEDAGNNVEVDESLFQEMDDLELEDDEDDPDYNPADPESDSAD
UniProt O75818: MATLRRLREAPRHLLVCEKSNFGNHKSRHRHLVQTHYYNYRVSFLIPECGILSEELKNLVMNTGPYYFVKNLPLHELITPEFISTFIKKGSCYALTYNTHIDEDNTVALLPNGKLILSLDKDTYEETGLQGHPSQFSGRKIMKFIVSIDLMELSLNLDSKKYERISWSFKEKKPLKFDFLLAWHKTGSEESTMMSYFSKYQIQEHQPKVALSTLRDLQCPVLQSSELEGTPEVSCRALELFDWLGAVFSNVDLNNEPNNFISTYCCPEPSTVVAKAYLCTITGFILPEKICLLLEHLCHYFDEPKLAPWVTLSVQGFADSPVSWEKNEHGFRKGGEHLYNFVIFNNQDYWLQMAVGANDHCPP
UniProt P23443: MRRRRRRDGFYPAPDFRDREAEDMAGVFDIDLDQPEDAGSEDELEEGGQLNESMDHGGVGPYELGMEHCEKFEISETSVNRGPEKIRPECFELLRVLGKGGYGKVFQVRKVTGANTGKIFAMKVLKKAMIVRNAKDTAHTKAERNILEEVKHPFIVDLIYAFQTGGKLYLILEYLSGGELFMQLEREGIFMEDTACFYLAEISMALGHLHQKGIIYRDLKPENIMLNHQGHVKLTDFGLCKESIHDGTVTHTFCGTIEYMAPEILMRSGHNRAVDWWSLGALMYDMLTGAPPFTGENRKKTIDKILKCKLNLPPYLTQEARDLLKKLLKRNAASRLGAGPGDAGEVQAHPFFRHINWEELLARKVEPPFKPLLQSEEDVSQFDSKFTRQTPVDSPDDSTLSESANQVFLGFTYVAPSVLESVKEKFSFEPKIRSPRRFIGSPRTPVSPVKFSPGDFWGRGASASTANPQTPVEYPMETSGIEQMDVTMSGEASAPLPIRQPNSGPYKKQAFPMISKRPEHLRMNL
UniProt Q8WWV3: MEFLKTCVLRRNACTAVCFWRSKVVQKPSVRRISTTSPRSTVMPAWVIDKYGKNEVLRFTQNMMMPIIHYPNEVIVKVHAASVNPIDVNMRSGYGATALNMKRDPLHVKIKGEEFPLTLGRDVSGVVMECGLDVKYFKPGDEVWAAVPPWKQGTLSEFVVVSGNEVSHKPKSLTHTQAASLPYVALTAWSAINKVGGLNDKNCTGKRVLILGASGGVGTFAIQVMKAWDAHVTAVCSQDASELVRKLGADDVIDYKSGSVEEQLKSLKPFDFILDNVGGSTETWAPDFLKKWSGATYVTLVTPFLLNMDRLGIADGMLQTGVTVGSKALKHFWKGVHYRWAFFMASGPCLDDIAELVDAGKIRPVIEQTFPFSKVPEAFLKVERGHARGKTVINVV
UniProt Q5JTH9: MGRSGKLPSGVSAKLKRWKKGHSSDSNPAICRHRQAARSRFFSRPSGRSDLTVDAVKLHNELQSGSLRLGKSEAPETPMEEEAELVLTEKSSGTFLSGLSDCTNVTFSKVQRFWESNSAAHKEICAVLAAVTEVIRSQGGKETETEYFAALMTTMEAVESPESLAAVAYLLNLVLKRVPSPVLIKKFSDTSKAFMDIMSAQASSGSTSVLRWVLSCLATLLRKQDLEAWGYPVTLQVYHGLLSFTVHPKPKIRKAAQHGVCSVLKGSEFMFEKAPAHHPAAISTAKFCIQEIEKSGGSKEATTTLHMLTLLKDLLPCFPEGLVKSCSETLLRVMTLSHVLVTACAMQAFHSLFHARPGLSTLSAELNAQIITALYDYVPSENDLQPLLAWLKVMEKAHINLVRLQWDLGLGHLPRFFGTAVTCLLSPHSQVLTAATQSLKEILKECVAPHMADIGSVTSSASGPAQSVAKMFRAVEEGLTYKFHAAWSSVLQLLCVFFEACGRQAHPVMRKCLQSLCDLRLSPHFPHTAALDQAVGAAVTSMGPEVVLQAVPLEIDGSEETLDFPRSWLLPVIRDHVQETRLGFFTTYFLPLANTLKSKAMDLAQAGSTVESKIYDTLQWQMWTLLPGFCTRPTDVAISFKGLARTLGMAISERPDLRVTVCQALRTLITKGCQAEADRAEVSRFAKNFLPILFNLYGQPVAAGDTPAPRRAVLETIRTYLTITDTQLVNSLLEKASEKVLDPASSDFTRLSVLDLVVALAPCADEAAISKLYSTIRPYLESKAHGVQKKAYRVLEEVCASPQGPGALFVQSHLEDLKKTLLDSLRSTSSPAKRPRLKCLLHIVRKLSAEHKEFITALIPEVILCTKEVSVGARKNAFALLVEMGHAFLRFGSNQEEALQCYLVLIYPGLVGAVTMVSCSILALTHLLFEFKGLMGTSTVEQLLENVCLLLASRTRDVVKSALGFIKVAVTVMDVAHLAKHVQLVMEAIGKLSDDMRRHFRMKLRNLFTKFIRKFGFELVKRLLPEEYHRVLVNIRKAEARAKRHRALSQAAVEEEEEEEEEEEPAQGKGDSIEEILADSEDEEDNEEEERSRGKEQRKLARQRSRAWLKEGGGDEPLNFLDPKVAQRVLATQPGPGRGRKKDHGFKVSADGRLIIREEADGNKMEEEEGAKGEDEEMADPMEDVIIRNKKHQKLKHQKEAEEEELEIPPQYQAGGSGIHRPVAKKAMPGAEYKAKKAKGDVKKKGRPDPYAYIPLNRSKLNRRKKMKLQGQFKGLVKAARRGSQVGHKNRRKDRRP

Key:
Assay in all cases: log2 fold change, soluble protein after heating vs DMSO (PISA); higher = thermal stabilisation; K562 lysate, 10 uM; active = over 0.2 and 3.5 SD of the protein, either way, in both replicates (recomputed)
vemurafenib = compound: CCCS(=O)(=O)Nc1ccc(F)c(C(=O)c2c[nH]c3ncc(-c4ccc(Cl)cc4)cc23)c1F [vemurafenib]
Summary of the method: (§1)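 Values give the log-two fold change in thermal stability against solvent controls, from duplicates. Crude K562 extract at 1 mg/mL protein, made by dounce homogenisation in PBS pH 7.4 with 1 mM MgCl2, was treated with 10 μM compound for 30 min. After 3 min heating across 48°C-58°C, aliquots were pooled, adjusted to 0.5% NP-40 at 4°C and centrifuged at 21,000xg for 90 min. The supernatant was measured by TMTpro 16plex LC-MS/MS with channel sums equalised.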

[1] = compound: CCCS(=O)(=O)Nc1ccc(F)c(C(=O)c2c[nH]c3ncc(Cl)cc23)c1F
Summary of the method: as §1

barasertib = compound: CCN(CCCOc1ccc2c(Nc3cc(CC(=O)Nc4cccc(F)c4)[nH]n3)ncnc2c1)CCOP(=O)(O)O [barasertib]
Summary of the method: as §1

[2] = compound: CC[C@@H]1C(=O)N(C)c2cnc(Nc3ccc(C(=O)NC4CCN(C)CC4)cc3OC)nc2N1C1CCCC1
Summary of the method: as §1

volasertib = compound: CC[C@@H]1C(=O)N(C)c2cnc(Nc3ccc(C(=O)N[C@H]4CC[C@H](N5CCN(CC6CC6)CC5)CC4)cc3OC)nc2N1C(C)C [volasertib]
Summary of the method: as §1

[3] = compound: CCn1c(C(=O)N(C2CC2)C2CC2)cc2c3c(ncn3C)c(Nc3cc(C)n(C)n3)nc21
Summary of the method: as §1

[4] = compound: CCn1cc(-c2ccnc3[nH]c(-c4cccc(CN(C)C)c4)cc23)c(-c2ccc(NC(=O)N(C)C)cc2)n1
Summary of the method: as §1

[5] = compound: CN1CCC(CNc2ccc3ncc(-c4cccc(OC(F)(F)F)c4)n3n2)CC1
Summary of the method: as §1

saracatinib = compound: CN1CCN(CCOc2cc(OC3CCOCC3)c3c(Nc4c(Cl)ccc5c4OCO5)ncnc3c2)CC1 [saracatinib]
Summary of the method: as §1

sotrastaurin = compound: CN1CCN(c2nc(C3=C(c4c[nH]c5ccccc45)C(=O)NC3=O)c3ccccc3n2)CC1 [sotrastaurin]
Summary of the method: as §1

alvocidib = compound: CN1CC[C@H](c2c(O)cc(O)c3c(=O)cc(-c4ccccc4Cl)oc23)[C@H](O)C1 [alvocidib]
Summary of the method: as §1

Tubastatin A = compound: CN1CCc2c(c3ccccc3n2Cc2ccc(C(=O)NO)cc2)C1 [Tubastatin A]
Summary of the method: as §1

[6] = compound: CNC(=O)C1=CC=CC=C1NC2=NC(=NC=C2Cl)NC3=C(C=C(C=C3)N4CCOCC4)OC
Summary of the method: as §1

defactinib = compound: CNC(=O)c1ccc(Nc2ncc(C(F)(F)F)c(NCc3nccnc3N(C)S(C)(=O)=O)n2)cc1 [defactinib]
Summary of the method: as §1

[7] = compound: CNc1nc(-c2ccc3c(N)n[nH]c3c2)cc(N2C[C@@H](C(=O)NC3CCCCC3)CC[C@H]2C)n1
Summary of the method: as §1

encorafenib = compound: COC(=O)N[C@@H](C)CNc1nccc(-c2cn(C(C)C)nc2-c2cc(Cl)cc(NS(C)(=O)=O)c2F)n1 [encorafenib]
Summary of the method: as §1

[8] = compound: COC(=O)[C@H](CCSC)NC(=O)C1=C(C=C(C=C1)NC[C@H](CS)N)C2=CC=CC=C2
Summary of the method: as §1

alisertib = compound: COc1cc(Nc2ncc3c(n2)-c2ccc(Cl)cc2C(c2c(F)cccc2OC)=NC3)ccc1C(=O)O [alisertib]
Summary of the method: as §1

[9] = compound: COc1cc2nc(-c3cc(F)ccc3O)nc(N[C@@H]3CNC[C@H]3C(C)(C)O)c2cc1OC
Summary of the method: as §1

gefitinib = compound: COc1cc2ncnc(Nc3ccc(F)c(Cl)c3)c2cc1OCCCN1CCOCC1 [gefitinib]
Summary of the method: as §1

Target	log2 fold change (vemurafenib)	log2 fold change [1]	log2 fold change (barasertib)	log2 fold change [2]	log2 fold change (volasertib)	log2 fold change [3]	log2 fold change [4]	log2 fold change [5]	log2 fold change (saracatinib)	log2 fold change (sotrastaurin)	log2 fold change (alvocidib)	log2 fold change (Tubastatin A)	log2 fold change [6]	log2 fold change (defactinib)	log2 fold change [7]	log2 fold change (encorafenib)	log2 fold change [8]	log2 fold change (alisertib)	log2 fold change [9]	log2 fold change (gefitinib)
RRP1 (UniProt P56182)	inactive: 0.052	inactive: 0.059	inactive: 0.06	inactive: -0.142	inactive: -0.034	inactive: 0.11	inactive: 0.097	inactive: -0.091	inactive: -0.02	inactive: 0.019	inactive: 0.066	inactive: -0.064	inactive: -0.018	inactive: -0.023	inactive: -0.18	inactive: 0.079	inactive: 0.107	inactive: 0.026	inactive: 0.018	inactive: 0.02
RPS6KC1 (UniProt Q96S38)	inactive: -0.037	inactive: 0.033	inactive: 0.014	inactive: 0.051	inactive: -0.022	inactive: -0.032	inactive: -0.014	inactive: -0.078	inactive: 0.011	inactive: 0.026	inactive: 0.016	inactive: -0.027	inactive: 0.001	inactive: 0	inactive: -0.026	inactive: 0.014	inactive: 0.09	inactive: 0.001	inactive: 0	inactive: -0.004
RPS5 (UniProt P46782)	inactive: -0.014	inactive: 0.017	inactive: -0.038	inactive: -0.01	inactive: -0.026	inactive: 0.011	inactive: 0.026	inactive: -0.023	inactive: -0.017	inactive: -0.047	inactive: 0.057	inactive: -0.001	inactive: 0.009	inactive: 0.027	inactive: 0.04	inactive: -0.043	inactive: 0.035	inactive: 0.007	inactive: -0.006	inactive: -0.078
RSU1 (UniProt Q15404)	inactive: -0.006	inactive: 0.005	inactive: -0.067	inactive: 0.026	inactive: 0.022	inactive: 0.004	active: 0.405	inactive: -0.143	inactive: -0.032	inactive: -0.019	inactive: 0.12	inactive: 0.057	inactive: -0.021	inactive: -0.042	inactive: -0.008	inactive: -0.035	inactive: -0.035	inactive: -0.005	inactive: 0.015	inactive: 0.023
RPTOR (UniProt Q8N122)	inactive: -0.028	inactive: 0.022	inactive: 0.052	inactive: -0.024	inactive: -0.046	inactive: 0.038	inactive: 0.018	inactive: -0.039	inactive: 0	inactive: 0.046	inactive: 0.008	inactive: -0.11	inactive: 0.036	inactive: 0	inactive: -0.048	inactive: -0.004	inactive: -0.007	inactive: -0.012	inactive: -0.005	inactive: -0.007
RRP8 (UniProt O43159)	inactive: -0.016	inactive: -0.001	inactive: 0.002	inactive: 0.072	inactive: -0.071	inactive: 0.002	inactive: -0.038	inactive: 0.147	inactive: 0.012	inactive: -0.025	inactive: 0.055	inactive: -0.072	inactive: -0.045	inactive: -0.062	inactive: 0.035	inactive: 0.092	inactive: 0.101	inactive: -0.011	inactive: -0.026	inactive: -0.031
RPS3 (UniProt P23396)	inactive: -0.04	inactive: 0.006	inactive: -0.022	inactive: -0.054	inactive: -0.007	inactive: 0.016	inactive: 0.016	inactive: -0.005	inactive: 0	inactive: -0.013	inactive: 0.016	inactive: -0.015	inactive: -0.034	inactive: -0.004	inactive: -0.048	inactive: 0	inactive: 0.042	inactive: 0.017	inactive: -0.001	inactive: -0.039
RPL5 (UniProt P46777)	inactive: -0.056	inactive: 0.008	inactive: -0.026	inactive: 0.028	inactive: -0.008	inactive: -0.014	inactive: 0.064	inactive: -0.065	inactive: -0.004	inactive: 0.011	inactive: 0.04	inactive: 0.025	inactive: -0.01	inactive: 0.009	inactive: -0.005	inactive: 0.006	inactive: -0.017	inactive: -0.005	inactive: -0.017	inactive: -0.045
RWDD1 (UniProt Q9H446)	inactive: -0.045	inactive: 0	inactive: 0.032	inactive: 0.016	inactive: 0.009	inactive: -0.008	inactive: 0.08	inactive: -0.071	inactive: -0.002	inactive: -0.051	inactive: 0.056	inactive: 0.058	inactive: -0.008	inactive: 0.007	inactive: 0.041	inactive: -0.004	inactive: -0.033	inactive: -0.022	inactive: -0.002	inactive: 0.061
RPP40 (UniProt O75818)	inactive: -0.001	inactive: 0.011	inactive: -0.019	inactive: -0.042	inactive: 0.002	inactive: 0.043	inactive: 0.024	inactive: -0.012	inactive: -0.024	inactive: 0.006	inactive: 0.077	inactive: -0.026	inactive: 0.008	inactive: 0.022	inactive: -0.086	inactive: 0.012	inactive: -0.107	inactive: -0.01	inactive: -0.027	inactive: -0.007
RPL39P5 (UniProt Q59GN2)	inactive: -0.023	inactive: 0.018	inactive: -0.098	inactive: 0.073	inactive: 0.035	inactive: 0	inactive: -0.045	inactive: 0.03	inactive: -0.024	inactive: 0.042	inactive: -0.017	inactive: 0.012	inactive: 0.006	inactive: 0	inactive: 0.034	inactive: -0.053	inactive: 0.008	inactive: 0.02	inactive: -0.014	inactive: -0.005
RPS23 (UniProt P62266)	inactive: -0.016	inactive: 0.034	inactive: -0.023	inactive: 0.027	inactive: -0.002	inactive: -0.039	inactive: 0.1	inactive: -0.051	inactive: -0.037	inactive: -0.026	inactive: 0.026	inactive: 0.034	inactive: -0.011	inactive: -0.018	inactive: 0.062	inactive: -0.028	inactive: 0.065	inactive: 0.01	inactive: -0.01	inactive: -0.061
RPS6KB1 (UniProt P23443)	inactive: -0.052	inactive: -0.001	inactive: 0.068	inactive: -0.109	inactive: -0.041	inactive: 0.078	inactive: -0.155	inactive: 0.185	inactive: -0.022	inactive: 0.074	inactive: -0.021	inactive: -0.184	inactive: 0.115	inactive: 0.094	inactive: -0.013	inactive: -0.039	inactive: 0.218	inactive: -0.02	inactive: 0.166	inactive: 0.062
RTN4IP1 (UniProt Q8WWV3)	inactive: -0.02	inactive: 0.047	inactive: -0.049	inactive: -0.018	inactive: -0.014	inactive: -0.007	inactive: 0.058	inactive: -0.106	inactive: -0.048	inactive: 0.015	inactive: 0.042	inactive: -0.079	inactive: 0.036	inactive: -0.014	inactive: 0	inactive: -0.021	inactive: 0.003	inactive: -0.111	inactive: 0.019	inactive: 0.196
RRP1B (UniProt Q14684)	inactive: 0.02	inactive: 0.027	inactive: 0.081	inactive: 0.012	inactive: -0.055	inactive: -0.024	inactive: 0.031	inactive: -0.018	inactive: 0	inactive: 0.04	inactive: -0.008	inactive: -0.05	inactive: 0.017	inactive: -0.074	inactive: 0.044	inactive: 0.048	inactive: 0.024	inactive: 0.001	inactive: 0.002	inactive: -0.018
RRP12 (UniProt Q5JTH9)	inactive: -0.006	inactive: 0.033	inactive: 0.013	inactive: -0.024	inactive: -0.019	inactive: 0.013	inactive: 0.019	inactive: -0.056	inactive: 0	inactive: 0.049	inactive: -0.01	inactive: -0.01	inactive: -0.035	inactive: 0.013	inactive: -0.015	inactive: 0.005	inactive: 0.08	inactive: 0.023	inactive: 0.026	inactive: 0.07

Nothing new here: an excerpt of the list.
Target	log2 fold change (vemurafenib)	log2 fold change [1]	log2 fold change (barasertib)	log2 fold change [2]	log2 fold change (volasertib)	log2 fold change [3]	log2 fold change [4]	log2 fold change [5]	log2 fold change (saracatinib)	log2 fold change (sotrastaurin)	log2 fold change (alvocidib)	log2 fold change (Tubastatin A)	log2 fold change [6]	log2 fold change (defactinib)	log2 fold change [7]	log2 fold change (encorafenib)	log2 fold change [8]	log2 fold change (alisertib)	log2 fold change [9]	log2 fold change (gefitinib)
RPS3 (UniProt P23396)	inactive: -0.04	inactive: 0.006	inactive: -0.022	inactive: -0.054	inactive: -0.007	inactive: 0.016	inactive: 0.016	inactive: -0.005	inactive: 0	inactive: -0.013	inactive: 0.016	inactive: -0.015	inactive: -0.034	inactive: -0.004	inactive: -0.048	inactive: 0	inactive: 0.042	inactive: 0.017	inactive: -0.001	inactive: -0.039
RPL5 (UniProt P46777)	inactive: -0.056	inactive: 0.008	inactive: -0.026	inactive: 0.028	inactive: -0.008	inactive: -0.014	inactive: 0.064	inactive: -0.065	inactive: -0.004	inactive: 0.011	inactive: 0.04	inactive: 0.025	inactive: -0.01	inactive: 0.009	inactive: -0.005	inactive: 0.006	inactive: -0.017	inactive: -0.005	inactive: -0.017	inactive: -0.045
